These are yes or no findings as the source states them, for the method shown.

Amino acid sequences for entries named in this document (tags omitted). Residues count along the entry.
UniProt P13674, residues 160-255: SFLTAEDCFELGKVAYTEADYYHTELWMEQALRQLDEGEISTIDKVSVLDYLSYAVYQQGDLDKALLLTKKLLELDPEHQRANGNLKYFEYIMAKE

The test concerns the target PSB‐I^143–238 construct (peptide‐substrate–binding domain of the α‐I subunit of human collagen prolyl 4‐hydroxylase I) (human) (UniProt P13674). Briefly: SEC-MALS; PSB‐I^143–238 on Superdex 200 Increase 10/300 GL, column at +5 to +7°C, MALS and RI detectors at +20°C; both purified.

In the case of “PSB‐I^143–238 construct (peptide‐substrate–binding domain of the α‐I subunit of human collagen prolyl 4‐hydroxylase I) (from UniProt P13674 160-255) (domain or fragment)”, the binding result is “no binding”.
